Data: patent US9316632B2, “Methods of screening chemotherapeutic agents and treating cancer” (Marshall University Research Corporation, priority 2009, dated 2016)
At least one structure is not confirmed: it was looked up by name or label, or the drawing left a doubt.

Columns and labels:
[1] = system: IDH-1 negative glioblastoma, WHO grade IV; experiment: Clinical course of the Example 4 subject under treatment; type: in vivo, human; details: 6 months after the completion of the therapy
[2] = system: IDH-1 negative glioblastoma; experiment: Clinical course of the Example 3 subject under treatment; type: in vivo, human

In the case of `Cn1nnc2c(C(N)=O)ncn2c1=O` [temozolomide], the “clinical response of the tumor to treatment” value [1] is reported as “tumor subsequently regressed and the subject was in complete remission” and the “clinical response of the tumor to treatment” value [2] is reported as “after an initial tumor regression, the tumor reoccurred 6 months after the completion of that therapy”.
